Experimental data reported in patent publication US20210393645A1, “TREATMENT FOR PROGRESSIVE MULTIPLE SCLEROSIS” (UTI LIMITED PARTNERSHIP, priority 2016, published 2021).

Test system: human neurons
Assay: Iron (FeSO4) mediated neurotoxicity screening, MAP-2 positive neurons counted
Assay type: cell-based
Conditions: drug 10 μM
Procedure: Human neurons were isolated from brain tissues of therapeutically aborted 15-20 week old fetuses, in accordance with ethics approval of the University of Calgary ethics committee, after written informed consent of the pregnant donors. Neurons were isolated as previously described (Vecil et al., 2000) brain specimens were washed in phosphate buffered saline (PBS) to remove blood, followed by removal of meninges. […] Thereafter, the digestion was stopped by addition of 4 ml fetal calf serum (FCS). […] Cells were cultured in feeding medium of minimal essential medium (MEM) supplemented with 10% fetal bovine serum (FBS), 1 μM sodium pyruvate, 10 μM glutamine, 1× non-essential amino acids, 0.1% dextrose and 1% penicillin/streptomycin (all culture supplements from Invitrogen, Burlington, Canada). […] For experiments, the neuron-enriched cultures were retrypsinized and cells were plated in poly-L-ornithine pre-coated 96-well plates at a density of 100,000 cells/well in 100 μl of the complete medium supplemented with cytosine arabinoside. […] All conditions were performed in quadruplicates. […]
Images were taken using the automated ImageXpress® imaging system (Molecular Devices, Sunnyvale, Calif.) through a 10x objective microscope lens, displaying 4 or 9 sites per well. […] Cells were defined according to fluorescence intensity and size at different wavelengths. […]

## CC(C)NCC(O)COc1ccc(CC(N)=O)cc1 (stereo not shown) [ATENOLOL]
  protection from FeSO4-mediated neurotoxicity (in words): prevented iron-mediated neurotoxicity beyond levels of controls
